# From PubChem BioAssay AID1439 (NMMLSC, 2008)
# Amino acid sequences for entries named in this document (tags omitted).
# UniProt P09471, whole entry, looked up: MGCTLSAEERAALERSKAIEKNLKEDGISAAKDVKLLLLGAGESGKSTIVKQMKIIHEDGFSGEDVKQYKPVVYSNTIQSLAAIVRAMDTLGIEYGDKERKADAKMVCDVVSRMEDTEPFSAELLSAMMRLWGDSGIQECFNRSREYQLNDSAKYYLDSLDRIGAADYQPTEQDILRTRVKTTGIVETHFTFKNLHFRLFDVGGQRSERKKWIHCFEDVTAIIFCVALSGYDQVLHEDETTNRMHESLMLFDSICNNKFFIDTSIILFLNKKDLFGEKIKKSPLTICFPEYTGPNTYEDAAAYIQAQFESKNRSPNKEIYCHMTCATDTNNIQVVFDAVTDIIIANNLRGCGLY
# Among all 220,000 compounds or so, about 770 (0.35%) were called active. Inconclusive results, whose numbers are uncertain, are shown with a selection of clear calls. Rule as the data show it: active = binding response below about 49% or above about 150%; inconclusive = no clear call, values can overlap the other calls; inactive = in between.
# Biological target: Guanine nucleotide-binding protein G(o) subunit alpha (Homo sapiens) (UniProt P09471)
# Assay: RGS7-Galphao binding modulators, primary screen, biochemical, multiplexed bead flow cytometry (AID 1439);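 also: fluorescent Galphao held in activated GDP-AlF4 state binding bead-coupled RGS7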
# Settings: at 10 µM, actives lie on both sides
row,Compound,binding response (% of control)
1,CC(C)n1cnc2c(Nc3ccc(C(=O)O)cc3)nc(Cl)nc21,inconclusive: 108%
2,N/C(=N\OC(=O)CCCOc1ccc(Cl)cc1Cl)c1ccccn1,inconclusive: 107%
3,COCCN(C(=S)Nc1cccc(Cl)c1C)C(C)c1ccco1 (stereo not given),inconclusive: 122%
4,CCCS(=O)(=O)N1CCN(Cc2ccccc2OCC)CC1,inactive: 101%
5,Cc1ccsc1/C=C1/NC(=O)N(Cc2ccc(F)cc2)C1=O,inconclusive: 93.3%
6,OCc1nc2ccccc2n1CCCOc1ccc(Br)cc1,active: 1.18%
7,O=C(NCCCN1CCOCC1)C(=O)N/N=C/c1ccccc1O,inconclusive: 92.2%
8,COc1ccc(NC(=O)Cn2c(=O)c(C)nc3ccccc32)cc1Cl,inconclusive: 172%
9,COc1ccc(C2c3ccc(O)cc3Oc3ncn4nc(-c5ccco5)nc4c32)cc1OC (stereo not given),inconclusive: -25.5%
10,Cn1cccc1/C=N/NC(=O)CSc1nc2ccccc2n1C,inconclusive: 120%
11,Cc1ccccc1NC(=O)CN1C(=O)NC(C)(CCc2ccccc2)C1=O (stereo not given),inconclusive: 127%
12,Cc1cc(N2CCN(C)CC2)nc2ccc(NC(=S)NCCCN3CCc4ccccc4C3)cc12,inconclusive: 93%
13,COn1c(-c2ccccc2)nc2c1CCc1c-2no[n+]1[O-],inactive: 98.7%
14,COc1ccc(C(=O)Cn2c(Cl)nc3c2c(=O)n(C)c(=O)n3C)cc1,inconclusive: 188%
15,CC(C(=O)NCc1ccc(F)cc1)c1ccc([N+](=O)[O-])cc1 (stereo not given),inactive: 96.8%
16,COc1ccc(CNN2CCCCC2C(=O)Nc2ccc(OC)c(OCC(C)C)c2)cc1OC (stereo not given),inconclusive: 78.9%
17,COc1c(Br)cc([N+](=O)[O-])c(OC)c1C(=O)NC(=O)Nc1cc(Cl)cc(Cl)c1,inconclusive: 105%
18,CC(=O)N1CCn2c3ccc(C)cc3c3cccc1c32,inactive: 101%
19,O=C(CCNC(=O)Cn1ccc2ccccc2c1=O)NCc1ccc(F)cc1Cl,inconclusive: 119%
20,CCc1nc2sc(C(=O)O)c(N)c2c2c1CCCC2,inconclusive: 87%
21,CC/C(=N\NC(=O)c1ccc(-c2ccccc2)cc1)C12CC3CC(CC(C3)C1)C2,inactive: 90.4%
22,O=C1CCCC(O)=C1C1C2=C(CCCC2=O)OC2=C1C(=O)CCC2,inactive: 104%
23,CCS(=O)(=O)c1ccc(O)c(NC(=O)Nc2ccc(C(C)(C)C)cc2)c1,inconclusive: 84.3%

row,Compound,binding response (% of control)
1,CCC1=C(OC(=O)N(CC)CC)N2C(=O)OC(=NCCc3c[nH]c4ccccc34)[C@]2(Cc2ccccc2)[C@H]2C1=CC[C@H]1C(=O)N(CC)C(=O)[C@H]12,inconclusive: 104%
2,Cc1cc2ncc(S(=O)(=O)C(C)(C)C)c(N)n2n1,inconclusive: 85.2%
3,CC1(C)CC(/C=C/c2ccccc2)=Nc2ccccc2N1,inconclusive: 181%
4,COc1cc(OC)c2ccc(=O)oc2c1C(CCN1CCCCC1)c1ccc(N(C)C)cc1 (stereo not given),inconclusive: 100%
5,Cc1cccc(CN2C[C@]34CC[C@@H](C[C@@H]3S2(=O)=O)O4)c1,inconclusive: 105%
6,NCCCCNCCCN,inconclusive: 49.4%
7,CCCCc1c(C)nc(N2CCCC2)[nH]c1=O,inconclusive: 42.5%
8,O=[N+]([O-])c1cccnc1Oc1ccccc1F,inconclusive: 88.8%
9,O=C(NC1(N2CCOCC2)CC1)c1ccc(Cl)cc1,inconclusive: 90.1%
10,CSc1sc(-c2ccnc(SCC(=O)C(C)(C)C)n2)c2c1C(=O)CC(C)(C)C2,inconclusive: 112%
11,CCC(NC(=O)NCc1cccnc1)(C(F)(F)F)C(F)(F)F,inactive: 103%
12,C[C@@H](NC(=O)OC(C)(C)C)c1nnc(S(=O)(=O)Cc2ccccc2)o1,inconclusive: 85.8%
13,C=CCNC(=S)N(Cc1ccccc1)Cc1ccccc1,inconclusive: 112%
14,Cc1ccccc1CC1S/C(=N/N=C/c2ccco2)NC1=O (stereo not given),inconclusive: 99.8%
15,O=C(Nc1ccc(Cl)cc1)N1CCCN(c2ccc(C(F)(F)F)cc2[N+](=O)[O-])CC1,inconclusive: 86.1%
16,O=C(NNC(=O)c1cc([N+](=O)[O-])ccc1Cl)c1cccs1,inactive: 98.7%
17,O=C(COc1ccccc1C(=O)Nc1ccccc1)c1ccc(Br)cc1,inconclusive: 99.3%
18,COCCCNC(=O)c1c(N)n(-c2ccccc2)c2nc3ccccc3nc12,inconclusive: 100%
19,Cn1c(=O)c2c(O)c(C=NCc3ccccc3)c(=O)n(C)c2n(C)c1=O,inconclusive: 64.6%
20,COC(=O)C1=C(C)NC(C)=C(C(=O)OC)C1c1ccco1,inconclusive: 90.6%
21,N=C1/C(=C\c2coc3ccccc3c2=O)C(=O)N=C2SC=CN12,inconclusive: 103%
22,N#Cc1c(-c2ccc(Cl)cc2)c2c([nH]c1=O)-c1ccccc1OC2,inconclusive: 93.7%
23,NS(=O)(=O)c1ccc2ccccc2c1,inconclusive: 96.2%

row,Compound,binding response (% of control)
1,O=C(NNc1cc(C(F)(F)F)nc2ccccc12)Nc1cccc(Cl)c1,inconclusive: 110%
2,Cn1nc(-c2ccccc2)cc1NS(=O)(=O)c1ccccc1,inconclusive: 89.2%
3,COc1cc(C(=O)N/N=C/c2ccsc2C)cc(OC)c1OC,inactive: 100%
4,Cc1cc(Nc2ccccc2C(=O)O)nc2nc3ccccc3c(=O)n12,inactive: 111%
5,COc1ccc(-c2cc(C#N)nc(N3CCNCC3)n2)cc1,inactive: 146%
6,O=C(Cn1nc(C(=O)O)c2ccccc2c1=O)Nc1nc(-c2ccccc2)cs1,inconclusive: 113%
7,O=C(O)CCCC(=O)Nc1ccc(Oc2ncnc3cc(Cl)ccc23)nc1,inconclusive: 71.7%
8,Fc1cccc(-c2nnn3c2nc(Cl)c2ccccc23)c1,inconclusive: 83.5%
9,Cc1ccc(C)c(Nc2nc(N)c3ccccc3n2)c1,inconclusive: 86%
10,COc1cc(OC)cc(C(=O)NC2=NCCS2)c1,inactive: 102%
11,C=CCn1c(=O)[nH]c2nc3cc(N=CN(C)C)c(C)cc3nc2c1=O,inconclusive: 106%
12,O=C(NCCc1ccccc1)c1ccc(Cl)nc1,inactive: 99.8%
13,COCCCn1c(=NC(C)=O)c(C#N)cc2c(=O)n3cccc(C)c3nc21,inconclusive: 73.9%
14,O=C(NN1CCN(Cc2ccccc2Cl)CC1)c1ccc(Br)cc1,inconclusive: 95.9%
15,CCOc1[nH]n(-c2ccccc2)c(=O)c1C=Nc1ccccc1,inconclusive: 95.1%
16,O=C(c1ccc(F)cc1)C1CCN(Cc2cn[nH]c2-c2ccccc2)CC1,inconclusive: 152%
17,COc1ccccc1Nc1nc(NCCCN(C)C)nc(N)c1[N+](=O)[O-],inconclusive: 155%
18,Cc1cc(=O)[nH]c2nnnn12,inconclusive: 116%
19,O=C(c1cnn2c(C(F)(F)F)cc(-c3cccs3)nc12)N1CCN(C(c2ccccc2)c2ccccc2)CC1,inactive: 96.5%
20,CC(=O)N1C(C(=O)O)CSC1c1ccc(C)cc1 (stereo not given),inactive: 99.2%
21,C/C(=N\NC(=O)Cc1cccn1C)c1ccc([N+](=O)[O-])cc1,inconclusive: 48.4%
22,CCC(C)(C)NC(=O)c1cccc(NC(=O)C(C)C)c1,inactive: 96.6%
23,C/C=C\C=C/C(=O)Nc1cccc(C2=NOC3(C2)C[C@@H](C(N)=O)N(C(=O)c2ccc(Cl)cc2)C3)c1 (stereo not given in full),inconclusive: 85.8%

# Retrieved by compound from above:
row,Compound,binding response (% of control)
22,CCC(C)(C)NC(=O)c1cccc(NC(=O)C(C)C)c1,inactive: 96.6%
14,O=C(NN1CCN(Cc2ccccc2Cl)CC1)c1ccc(Br)cc1,inconclusive: 95.9%

# Continuation:

row,Compound,binding response (% of control)
1,CC(=O)c1ccc(OCCOc2ccc(C#N)cc2)cc1,inconclusive: 111%
2,Cc1cccc(Cn2nc(-n3cccc3)c3c(C)cc(C)nc32)c1,inactive: 94.8%
3,O=C(O)/C=C/C(=O)NCC1CCC(CNC(=O)/C=C/C(=O)O)CC1 (stereo not given),inconclusive: 53.3%
4,COc1ccc(NC(=O)C2Cc3ccccc3C(=O)O2)cc1 (stereo not given),inconclusive: 96.7%
5,CCCCCC(=O)NC(=S)Nc1ccc(NC(=O)c2ccco2)cc1,inactive: 116%
6,Cc1ccccc1-n1c(SCC(=O)c2c(N)n(C)c(=O)n(C)c2=O)nnc1-c1cccnc1,inactive: 103%
7,O=c1cc(-c2ccc(O)c(O)c2)oc2cc(O)cc(O)c12,inconclusive: 74.6%
8,CS(=O)(=O)N(CC(=O)Nc1ccccc1C(=O)N1CCCC1)c1cccc([N+](=O)[O-])c1,inconclusive: 126%
9,CCOc1ccc2nc(SCC(=O)Nc3cccc(S(=O)(=O)NC4=NCCCCC4)c3)[nH]c2c1,inconclusive: 111%
10,CCC(C)[C@H](NC(=O)NC1CCCc2ccccc21)C(=O)OC (stereo not given in full),inconclusive: 108%
11,CCOC(=O)c1[nH]c2ccc(OC)cc2c1NC(=S)N1CCN(c2ccccn2)CC1,inconclusive: 115%
12,CC(=O)Nc1ccc(S(=O)(=O)Nc2nc3ccccc3nc2-n2ccc(=NC(=O)c3ccc(F)cc3)cc2)cc1,inconclusive: 74.5%
13,Cc1ccc(C(=O)N(CC(=O)NC2CCCC2)c2ccc3c(c2)OCCO3)s1,inactive: 105%
14,CC1Cc2ccccc2N1S(=O)(=O)c1cccc(C(=O)Nc2cccnc2)c1 (stereo not given),inconclusive: 120%
15,Cc1ccc(C(=O)NCCCc2ccccc2)c(C)c1,inconclusive: 112%
16,CN1CCN(C(=O)CCN2C(=O)/C(=C\c3ccc(Cl)cc3Cl)SC2=S)CC1,inconclusive: -887%
17,Nc1ccc([N+](=O)[O-])cc1C(=O)NNC(=O)c1ccco1,inconclusive: 73.5%
18,CCCCOC(=O)Nc1ccc(S(=O)(=O)Nc2nccs2)cc1,inconclusive: 104%
19,COc1cccc(C(=O)NC(=O)Nc2cc(C)[nH]n2)c1,inconclusive: 88.5%
20,CCCCCN1C/C=C\C(c2ccc(OC)cc2)N(Cc2ccc(F)cc2)C(=O)C1 (stereo not given),inconclusive: 111%
21,N#Cc1ccsc1NC(=O)c1ccc(Cl)c([N+](=O)[O-])c1,inconclusive: 196%

# Shown with tabs: 3 of the compounds above.
row	Compound	binding response (% of control)
7	O=c1cc(-c2ccc(O)c(O)c2)oc2cc(O)cc(O)c12	inconclusive: 74.6%
14	CC1Cc2ccccc2N1S(=O)(=O)c1cccc(C(=O)Nc2cccnc2)c1 (stereo not given)	inconclusive: 120%
17	Nc1ccc([N+](=O)[O-])cc1C(=O)NNC(=O)c1ccco1	inconclusive: 73.5%
